The text below walks through data of PubChem BioAssay AID1508600 (Functional Genomics Laboratory (NCATS/FGL), 2020).

Among all 53,000 sequences or so, about 3,700 (7%) were called active.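 How the source made its calls: active means gene knockdowns whose robust z-score for IL-1 alpha signal is at least 2 or at most -2, so actives lie on both sides; inactive means the rest.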 The list shows a part of the results.

The assay is described as follows: Components of the Cytosolic LPS Sensing Pathway: Gene Identification via Genome-wide siRNA Screen.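 Further: robust z of the log signal after scaling to non-targeting control siRNA wells of the plate.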 The note with it: RAW264.7 macrophages, IL-1a HTRF, actives lie on both sides, screened at 100 nM (by protocol), cells primed 5 h with Pam3CSK4 first. The method, boiled down: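 RAW264.7; siRNA 100 nM final, RNAiMAX, 48h 37 degrees C; Pam3CSK4 5 h; LipidA + TransIT-TKO 24 h; IL-1a HTRF; CellTiter-Glo viability; robust z vs negative-control median.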
Turning to GGAAGAUGACCAAGAAGCUTT against Ddx42, the z-score is inactive: -0.364.
With GGACCUCAUCUACAGAAUGTT against Tssk1 the figure was inactive: 0.878; with CCUACGUGAUAUCCUUUUATT against Vrk1, inactive: 0.0128.
The result for GGUGGACGAUUGAAAGUGATT against Lbx2 reads inactive: 0.825; that for GGCAGGAGAGGCAUCUUUUTT against Arhgap20, inactive: 0.0912; that for GGAAUCCUUGGACCUGAGGTT against Tnni3, active: -2.11.
The result for CGCUUAGCAAUAUCAUCGATT against Get3 reads inactive: -0.38; that for CCUAACCAUUGCUUAUAUATT against Stat1, inactive: 1.35.
As to GGAGAAUGACAAGAACUGCTT against Acer1, the z-score was inactive: -0.352.
For the sequence GGAUAUUAUGUCUUUGCUATT against Ints2, the z-score is inactive: 0.499.
With CCUUUUCCAUGCCUACUCCTT against Bag3 the figure was inactive: 0.339.
The result for GCUUUCGGAUGAACUUCGGTT against Gripap1 reads inactive: 0.577.
As to CCCAACAAUCCAACAAUGATT against Gm5444, the z-score is inactive: 0.286.
In the case of GCGAGAUCUGUCCUUACAGTT against Ildr1, the z-score was inactive: 0.929.
The result for GGCUGGAACCCUAAUUUCUTT against Tpo reads inactive: 1.32.
With CCAGACAGAAGGGUUAGCUTT against Mrps36 the figure was active: -2.03.
The result for CCUAAGGAAGAUAAACCGGTT against Sh2d7 reads active: -2.43; that for GGUAAAAAGCGCAGACUUATT against Bms1, inactive: 0.957; that for CCUAGUGAUUAAAGGGAUGTT against Prss43, inactive: 1.19.
For the sequence GGAUGCUGAGCUUUCUGACTT against Fchsd1, the z-score was inactive: 0.476.
The result for CCUGAGUAACAUUGCCGUGTT against Mgat1 reads inactive: -0.193; that for GGGUGACAGGGCAUGAGAATT against Macroh2a3, inactive: 0.611.
Consider GGCUUUCUCAUAUAACUCCTT against Mest, for which the z-score is inactive: -1.4.
The result for UCAACUCUUGACUUCGCUGTT against Rhbdd2 reads inactive: -0.619; that for CCAUCGUCCAAAGUACAUGTT against Rbp4, inactive: -1.39.
With GGAUCUCAGCUUCACUCCUTT against Emc8 the figure was inactive: -1.47; with GGAACCUUAGAUGUUACUUTT against Scara3, inactive: -0.438; with GGGAGAACUUAGCACGAAUTT against Polr2h, inactive: 0.392.
The result for GGAUCCACAGAGAAACCCUTT against Gfi1b reads inactive: -0.599; that for CCUCUCACACACCAUAACATT against Polm, inactive: -1.67.
Consider GGAAAACAUAUUUCAGCAGTT against Zfp775, for which the z-score is inactive: 1.05.
With CGGAUUAGUAUAAAUGUAGTT against Prss16 the figure was inactive: -0.109; with GGAAUCUGAUACCCAAGGATT against Csl, inactive: -0.555; with CCAAAGAUGCUGGUAGAUUTT against Olfr1140, inactive: -1.16.
With GGAGGAGGAGGACUUUGAUTT against Gon4l the figure was inactive: -1.49; with CUCAGUUCUUCUUCUUUUCTT against Olfr12, inactive: 0.852; with GGAAAAUUGGAACAAUCCATT against Sval2, inactive: -0.796.
With GCAAGCCCUGGAAGAAUUATT against Nat8 the figure was active: 2.26; with CCAAGAAUUACCACUUAUCTT against Phf11a, inactive: 0.191.
As for GGAGUGUGAUCAAGUUCAUTT against Eya4, the z-score was active: 2.16.
With GGAGAUAAAAGUUUCAUCUTT against Kdm4b the figure was inactive: 0.287; with GGCUUCACAAGGACCUUUGTT against BC024139, inactive: 1.88.
Turning to GCUAUAUGACAACCUCAGCTT against Slamf8, the z-score is inactive: 0.801.
The result for GGAAGCCUGAAACUCAGCATT against Srpk1 reads inactive: -1.34; that for GCAAUUAAUAGAAUUAGCCTT against Slc8a1, inactive: -0.0398; that for GGGCUCUUUAUCCUUUCCUTT against Cer1, inactive: 0.227.
With GGAGGAAAGAAUCGAUUUATT against Slc5a4a the figure was inactive: 1.18; with GCUGAUCAAGGACUAUCGGTT against Ywhaq, inactive: -0.567.
In the case of GGCCAUGGUCAUGGACAUGTT against Itpr3, the z-score was inactive: -0.466.
With GGCUCAAGUAUGAGAAUGATT against Krt15 the figure was inactive: -0.859.
The result for GGUGUGUUUUAUGUGUCCCTT against Ctif reads active: 2.62.
For GGAGAAGCAGGCCUUACAGTT against Clec3b, the z-score is inactive: 0.333.
As for GGAGAAUGGUUCAUAUCUGTT against Trmt44, the z-score is inactive: -0.849.
The result for CCAGCUCUGGUUUAUUGAATT against Neurog2 reads inactive: -1.67.
The result for GGUGAGCGUGUAGAGAUGCTT against Fbxo45 reads inactive: 0.787; that for “GGAUAUCACAUAGCAUCGGTT against 1700025G04Rik”, inactive: -0.742; that for GGACUAUGGAACCUUCACCTT against Sigirr, inactive: -1.6.
The result for GGAGUAGCAGAGCUUCUGGTT against S100a8 reads inactive: 0.642; that for CGCGCAUUGUGUUGCACUATT against Olfr1344, inactive: -0.00661; that for GGAAACCUGGCAUAACUUUTT against Pax9, inactive: 1.82.
In the case of GGCUUUGCUCCUGAUAAACTT against Vnn3, the z-score was inactive: -1.42.
With GGCCAUCGAGGUGAUGUACTT against Tpst2 the figure was inactive: -0.993; with GGUACCAGGGAGUGACAUUTT against Itgae, inactive: -0.833.
With GGAAGAAAAAUAUGCUUUCTT against Pls3 the figure was active: 2.7; with GGUCAUUAUACCAUUGGCATT against Tuba3b, inactive: 0.926.
With GCUCAUCUUAGACGAGGCCTT against Klhl25 the figure was inactive: 0.0702.
As for “CGAGUGUAAAUCCACUUUGTT against 2810004N23Rik”, the z-score is inactive: 0.616.
GCUACGUUAAAAGCAAUAATT against Zfp711: the z-score was inactive: -0.867.
As for GGUAAAGGUGUAUUCGGGUTT against Ifngr1, the z-score is inactive: -0.238.
With “CCCUUCUAUUUGAACAUAUTT against A530032D15Rik” the figure was inactive: -0.672.
With GCUGCUGAUAACAUCCGACTT against Golga5 the figure was inactive: 0.554.
With GGCAUCCAUGAAAAACUCUTT against Aqp9 the figure was inactive: 0.641; with GGAACUAAAUCUUCCAUCCTT against Chit1, inactive: -1.02; with GGCAAUGCCACAUUUAGAUTT against Casr, inactive: 1.87.
With “GGUACCUUAUGUUUACAAUTT against A430010J10Rik”, the z-score was inactive: 0.831.
With GGUGCCUUCUGUAAACGAGTT against Foxc2 the figure was active: 2.81; with GGAGAUAUUUUGCAUACAGTT against Vmn1r11, inactive: 1.17; with GGCAACAGUGAAAGAUGAATT against Acnat2, inactive: 0.0608.
With “GCCAGUUCCUAUCUGGCUUTT against 4931428L18Rik” the figure was inactive: 1.03; with “GGGUUUGUUUCCAGGACAATT against E130308A19Rik”, inactive: 0.334.
With CGUGUGUGUUAUGAAUCAATT against Tmem161a the figure was inactive: 0.984; with GGGCAAGUCCAUCCAAGACTT against Pthlh, inactive: -0.22.
In the case of CCAGAGGUCUCUAUUAAGATT against Cad, the z-score was inactive: -0.0939.
For the sequence GCCAUCAUCUGGGUAGUGUTT against Olfr1494, the z-score was inactive: 0.459.
With GCUCUCAUCAGACUUCGAGTT against Zfp202 the figure was inactive: 0.0887.
GGCUUCUAUGUCAUAGGAATT against Olfr351: the z-score is inactive: 0.75.
With CGUGAAAUAGAUGAUACCUTT against Cdc5l the figure was inactive: 0.625; with GGGUCAUGUAUAGUUUGUGTT against Dnajc8, inactive: -0.0942; with GGGUACACCUUGCCGAUGUTT against Tmtc3, inactive: 0.453.
On to GGAACGAACUCAUUAAAACTT against Abhd3, for which the z-score was inactive: -0.736.
The result for GGUUGAAUAUUGAAUGGAATT against Ttc39b reads inactive: -0.599; that for GGAUUCCUGCUUAUCAAAUTT against Nutm1, inactive: 0.221; that for GCUAGUCAGAAGAAGUACUTT against Actrt2, inactive: -0.402.
The result for GCUCAAUUCGGACAACAAGTT against Smad7 reads inactive: -0.594.
The result for GGUCACCUUAUAAUUGCCCTT against Btd reads active: -2.83; that for GGUUUCAUGUUCUGAAACUTT against Gprasp1, inactive: 0.481; that for GGACACCAGUACCUGAAACTT against Gm20735, inactive: -1.62.
On to CGGAGAAGUGACGUAUUCUTT against Pcdhga4, for which the z-score is inactive: -0.635.
With CCAGCAUCUACUGUCUGACTT against Sstr1 the figure was active: 4.2; with GCAGAGUAUUUGAUUCUUATT against Edc4, inactive: 0.414; with GGAAAAGGCCAUGAAUAUATT against Mmel1, inactive: 0.176.
In the case of GGAACAGAGACGAUACUCUTT against Fmr1nb, the z-score was inactive: -0.429.
The result for GGUCUCCUAUAGCACACAGTT against Itgb4 reads inactive: -1.08.
The result for GGACAUGAACCUCUUCAAATT against Fads2 reads inactive: 0.632; that for CCAACUUCAUAAGAUGUACTT against Commd3, inactive: 0.596; that for GCUAUGUGAAAGGAACCGATT against Prim2, inactive: -0.63.
The result for GGUUUUGUUGUGAGUGUUUTT against Eif1b reads inactive: 0.242.
